Results are given in words; binding and its absence hold for the method and conditions named. Binding seen in cells or lysates may run through a third protein. Some results given as binding are weak or reduced against the parent protein; the word gives no strength.
Target: protein disulfide isomerase (mouse (endogenous in testes)) (UniProt P09103)
Test: co-IP; anti-PDI antibody added to testes lysates of WT mice overnight at 4°C, protein G beads 2 hours, washed 3 times with lysis buffer (20 mM Tris-HCl, 150 mM NaCl pH 7.4, 1% Triton X-100, 1 mM EDTA, 0.5% sodium deoxycholate); partners detected by Western blotting

The chains behind the UniProt entries cited, without tags or fusion partners. Residues count along the entry.
UniProt P09103, residues 20-509: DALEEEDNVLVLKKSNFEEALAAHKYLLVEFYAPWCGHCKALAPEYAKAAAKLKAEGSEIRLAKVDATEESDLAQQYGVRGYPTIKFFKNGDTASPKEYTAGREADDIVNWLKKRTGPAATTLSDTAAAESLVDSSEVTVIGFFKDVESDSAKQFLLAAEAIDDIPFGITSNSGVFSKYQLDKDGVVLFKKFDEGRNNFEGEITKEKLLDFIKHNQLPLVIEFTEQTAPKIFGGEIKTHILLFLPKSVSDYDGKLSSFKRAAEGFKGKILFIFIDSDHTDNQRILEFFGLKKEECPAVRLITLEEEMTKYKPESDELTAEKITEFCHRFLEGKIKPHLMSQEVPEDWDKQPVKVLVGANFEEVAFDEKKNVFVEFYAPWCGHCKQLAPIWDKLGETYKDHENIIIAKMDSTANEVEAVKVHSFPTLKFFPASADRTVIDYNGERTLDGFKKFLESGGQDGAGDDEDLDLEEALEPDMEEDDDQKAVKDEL
UniProt P48722: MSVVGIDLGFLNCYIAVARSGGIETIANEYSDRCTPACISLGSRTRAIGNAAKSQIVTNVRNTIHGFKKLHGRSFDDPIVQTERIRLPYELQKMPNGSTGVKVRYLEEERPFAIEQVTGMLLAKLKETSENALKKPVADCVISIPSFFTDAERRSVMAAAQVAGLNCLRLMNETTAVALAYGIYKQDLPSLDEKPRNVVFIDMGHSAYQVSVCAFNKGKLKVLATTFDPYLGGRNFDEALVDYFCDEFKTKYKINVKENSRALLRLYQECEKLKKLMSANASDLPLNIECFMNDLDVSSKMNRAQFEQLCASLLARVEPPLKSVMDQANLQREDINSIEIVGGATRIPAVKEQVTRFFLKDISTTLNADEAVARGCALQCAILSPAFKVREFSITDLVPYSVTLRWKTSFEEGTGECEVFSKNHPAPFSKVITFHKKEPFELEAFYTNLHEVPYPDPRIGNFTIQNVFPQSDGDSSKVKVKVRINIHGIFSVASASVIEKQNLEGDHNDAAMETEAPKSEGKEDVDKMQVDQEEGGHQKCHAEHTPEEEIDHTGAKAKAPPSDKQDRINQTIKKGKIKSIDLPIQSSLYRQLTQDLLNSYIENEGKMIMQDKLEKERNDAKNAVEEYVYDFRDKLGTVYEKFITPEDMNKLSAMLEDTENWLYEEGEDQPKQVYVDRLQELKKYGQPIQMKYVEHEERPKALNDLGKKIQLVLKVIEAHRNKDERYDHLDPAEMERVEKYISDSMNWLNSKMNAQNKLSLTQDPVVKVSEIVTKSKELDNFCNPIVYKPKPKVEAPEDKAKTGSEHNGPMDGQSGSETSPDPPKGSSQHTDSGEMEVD

Substance: HSPA4L (from UniProt P48722 1-838)
- binding: binds

From paper PMC11383184
